Laboratory results: article PMC13598245
These are yes or no findings as the source states them, for the method shown. Some results given as binding are weak or reduced against the parent protein; the word gives no strength.

T1: Tau^209-221 p-S214
T1 sequence (peptide, FITC on the N-terminus; phosphoserine at S214): RSRTPSLPTPPTR

T2: MAST1^156-168 p-S161 (Mus musculus)
T2 sequence (peptide, FITC on the N-terminus; phosphoserine at S161): RPRSRSLSPGRSP

T3: MAST1^85-97 p-S90 (Mus musculus)
T3 sequence (peptide, FITC on the N-terminus; phosphoserine at S90): DGRRWSLASLPSS

T4: MAST1^158-170 p-S163 (Mus musculus)
T4 sequence (peptide, FITC on the N-terminus; phosphoserine at S163): RSRSLSPGRSPSS

T5: MAST1 p-Scramble
T5 sequence (peptide, FITC on the N-terminus; phosphoserine at residue 6 of the peptide): PLGDPSGRWARLS


Assays:
Test in all cases: fluorescence polarisation; fluorescence anisotropy; 2x serial dilution of purified protein mixed with 50 nM N-terminally FITC-conjugated peptide, room temperature, 15 min, 384-well plate; one-site binding model, n = 3; both purified
[1] = molecular target: T1, Tau^209-221 p-S214
[2] = molecular target: T2, MAST1^156-168 p-S161 (Mus musculus)
[3] = molecular target: T3, MAST1^85-97 p-S90 (Mus musculus)
[4] = molecular target: T4, MAST1^158-170 p-S163 (Mus musculus)
[5] = molecular target: T5, MAST1 p-Scramble

binding [1]	binding [2]	binding [3]	binding [4]	binding [5]	Binder
binds	binds	binds	–	–	14-3-3θ (purified, recombinant) (protein, UniProt P27348 1-245) MEKTELIQKAKLAEQAERYDDMATCMKAVTEQGAELSNEERNLLSVAYKNVVGGRRSAWRVISSIEQKTDTSDKKLQLIKDYREKVESELRSICTTVLELLDKYLIANATNPESKVFYLKMKGDYFRYLAEVACGDDRKQTIDNSQGAYQEAFDISKKEMQPTHPIRLGLALNFSVFYYEILNNPELACTLAKTAFDEAIAELDTLNEDSYKDSTLIMQLLRDNLTLWTSDSAGEECDAAEGAEN
–	–	–	no binding	no binding	14-3-3η (purified, recombinant) (protein, UniProt Q04917 1-246) MGDREQLLQRARLAEQAERYDDMASAMKAVTELNEPLSNEDRNLLSVAYKNVVGARRSSWRVISSIEQKTMADGNEKKLEKVKAYREKIEKELETVCNDVLSLLDKFLIKNCNDFQYESKVFYLKMKGDYYRYLAEVASGEKKNSVVEASEAAYKEAFEISKEQMQPTHPIRLGLALNFSVFYYEIQNAPEQACLLAKQAFDDAIAELDTLNEDSYKDSTLIMQLLRDNLTLWTSDQQDEEAGEGN
